Test results as given in patent US9233067B2, “Silk particles for controlled and sustained delivery of compounds” (Amsilk GmbH, priority 2009, dated 2016).
For some of these results: For at least one compound, name, drawing or mass did not settle the structure. Some of these results come from one statement about several compounds together.

Legend:
[1] = In vitro release from drug loaded eADF4(C16) particles; format: physicochemical; settings: time >20 d, power law fit
Protocol: Drug loaded eADF4(C16) particles were washed with distilled water and suspended in 1 ml PBS (pH 7.4) before incubation at 37° C. with constant shaking. Each vial contained 2 mg of drug loaded particles containing […] spider silk protein. The solvent was periodically removed from each sample and replaced with fresh PBS (pH 7.4). The drug content in the medium was then analyzed using UV-Vis-spectrometry. The percentage of cumulative model drug release (% w/w) was investigated as a function of incubation time. Each experiment was performed in triplicate. […] Supernatants of drawn samples were analyzed for drug content determination with UV-Vis-spectrometry.
[formula] where Mt/M∞ is the fractional amount of the drug released at time t, k is a characteristic constant of the system, and exponent n is related to the geometrical shape of the formulation and is indicative of the mechanism of drug release. […] For spherical systems the limiting value of n, when pure Fickian diffusion or pure Case II transport is operating, were determined to be equal to 0.43 and 0.85, respectively. […]
[formula] where n can be calculated from the slope of the log-log plot of release Mt/M∞ versus time t by linear fitting (FIG. 4d). […]

[2] = Properties of small molecular weight model drugs (Table 1); format: physicochemical
Protocol: All drugs were dissolved in water at a concentration of 0.21 μmol/ml. Drug substances and their featured properties are depicted in Table 1. The main selection criteria were solubility in aqueous media (expressed by the octanol/water partition coefficient (log P)), the acidic dissociation constant (pKa for protonated bases (BH+) or for acids (HA)) and the resulting net-charge in aqueous media (predominant or permanent charge).

## CCOc1ccc2nc3cc(N)ccc3c(N)c2c1 [Ethacridine lactate]
[1]; listed as ethacridine lactate
  n (release exponent): < 0.43

## O=S1(=O)OC(c2ccc(O)cc2)(c2ccc(O)cc2)c2ccccc21 [Phenol red]
[2]
  Permanently charged: yes
[2]; pH 7, aqueous media
  Predominant charge at pH7: negative

## Methyl violet
[1]; listed as methyl violet
  n (release exponent): < 0.43
